Experimental data: paper PMC11839074
Results are given in words; binding and its absence hold for the method and conditions named. In cells and extracts the contact can be indirect. Here binding means that the protein was enriched with, or labelled near, the bait; the list need not be complete.

By UniProt entry, the sequences of proteins in these tests, tags left out. Where a name states a change or a piece, a line headed by the entry shows the natural chain unless it says otherwise. Residues count along the entry.
UniProt Q3UCV8: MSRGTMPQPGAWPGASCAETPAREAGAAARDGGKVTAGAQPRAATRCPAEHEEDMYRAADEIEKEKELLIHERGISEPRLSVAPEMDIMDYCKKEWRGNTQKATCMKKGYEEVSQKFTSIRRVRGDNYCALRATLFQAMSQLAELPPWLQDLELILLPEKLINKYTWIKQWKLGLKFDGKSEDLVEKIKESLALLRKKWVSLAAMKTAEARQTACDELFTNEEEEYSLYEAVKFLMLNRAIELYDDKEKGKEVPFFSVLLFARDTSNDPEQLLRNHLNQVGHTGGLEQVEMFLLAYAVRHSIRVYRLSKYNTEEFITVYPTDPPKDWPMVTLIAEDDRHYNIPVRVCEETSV
UniProt P14106, residues 26-253: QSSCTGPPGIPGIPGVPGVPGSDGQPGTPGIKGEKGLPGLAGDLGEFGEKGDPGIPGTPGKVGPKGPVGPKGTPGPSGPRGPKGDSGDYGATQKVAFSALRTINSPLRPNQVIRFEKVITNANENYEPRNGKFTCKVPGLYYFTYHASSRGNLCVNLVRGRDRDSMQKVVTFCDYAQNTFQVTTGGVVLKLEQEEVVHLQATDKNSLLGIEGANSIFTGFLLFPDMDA
UniProt P01027, residues 25-1663: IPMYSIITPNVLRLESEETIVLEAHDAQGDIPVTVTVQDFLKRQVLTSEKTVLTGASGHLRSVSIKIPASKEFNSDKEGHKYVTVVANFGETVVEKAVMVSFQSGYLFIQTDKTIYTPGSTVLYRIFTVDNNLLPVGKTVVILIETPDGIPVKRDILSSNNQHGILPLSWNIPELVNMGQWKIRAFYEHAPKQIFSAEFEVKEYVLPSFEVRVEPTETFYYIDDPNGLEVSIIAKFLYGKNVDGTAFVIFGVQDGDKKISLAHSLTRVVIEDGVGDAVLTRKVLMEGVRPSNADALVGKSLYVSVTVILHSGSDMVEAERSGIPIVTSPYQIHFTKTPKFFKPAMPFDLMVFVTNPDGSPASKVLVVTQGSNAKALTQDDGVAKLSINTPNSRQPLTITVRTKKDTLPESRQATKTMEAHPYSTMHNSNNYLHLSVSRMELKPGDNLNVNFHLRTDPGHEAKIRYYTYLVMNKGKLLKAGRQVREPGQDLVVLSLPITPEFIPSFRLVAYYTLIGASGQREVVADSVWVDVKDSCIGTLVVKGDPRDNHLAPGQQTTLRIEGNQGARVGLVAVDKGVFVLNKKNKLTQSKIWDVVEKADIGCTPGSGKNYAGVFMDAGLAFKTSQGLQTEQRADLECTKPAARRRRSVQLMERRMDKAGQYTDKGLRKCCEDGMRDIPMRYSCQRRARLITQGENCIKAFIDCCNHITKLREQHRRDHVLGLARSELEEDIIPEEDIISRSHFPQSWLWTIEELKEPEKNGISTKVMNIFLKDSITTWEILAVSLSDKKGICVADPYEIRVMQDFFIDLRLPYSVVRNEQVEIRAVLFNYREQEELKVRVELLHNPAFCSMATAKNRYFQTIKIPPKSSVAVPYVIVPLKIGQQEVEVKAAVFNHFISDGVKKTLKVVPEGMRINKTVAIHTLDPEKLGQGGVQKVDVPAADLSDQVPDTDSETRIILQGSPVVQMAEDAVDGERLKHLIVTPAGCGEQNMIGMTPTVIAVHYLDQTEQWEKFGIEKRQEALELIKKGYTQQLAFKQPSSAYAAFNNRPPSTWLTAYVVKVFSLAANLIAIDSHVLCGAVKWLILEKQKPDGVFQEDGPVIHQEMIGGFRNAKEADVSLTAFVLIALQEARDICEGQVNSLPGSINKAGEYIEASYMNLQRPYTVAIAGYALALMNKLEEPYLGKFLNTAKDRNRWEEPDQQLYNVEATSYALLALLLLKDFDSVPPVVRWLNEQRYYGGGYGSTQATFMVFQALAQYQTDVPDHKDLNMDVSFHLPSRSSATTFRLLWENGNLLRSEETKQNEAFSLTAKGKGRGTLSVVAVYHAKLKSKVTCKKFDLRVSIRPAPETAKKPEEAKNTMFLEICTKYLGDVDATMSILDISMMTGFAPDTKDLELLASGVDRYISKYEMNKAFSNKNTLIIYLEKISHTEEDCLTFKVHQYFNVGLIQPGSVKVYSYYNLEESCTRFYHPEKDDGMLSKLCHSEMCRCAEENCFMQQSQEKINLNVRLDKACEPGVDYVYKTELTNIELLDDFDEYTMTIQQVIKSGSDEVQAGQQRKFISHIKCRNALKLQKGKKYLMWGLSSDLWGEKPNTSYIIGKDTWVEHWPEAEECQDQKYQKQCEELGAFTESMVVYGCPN
UniProt P01029, residues 20-1738: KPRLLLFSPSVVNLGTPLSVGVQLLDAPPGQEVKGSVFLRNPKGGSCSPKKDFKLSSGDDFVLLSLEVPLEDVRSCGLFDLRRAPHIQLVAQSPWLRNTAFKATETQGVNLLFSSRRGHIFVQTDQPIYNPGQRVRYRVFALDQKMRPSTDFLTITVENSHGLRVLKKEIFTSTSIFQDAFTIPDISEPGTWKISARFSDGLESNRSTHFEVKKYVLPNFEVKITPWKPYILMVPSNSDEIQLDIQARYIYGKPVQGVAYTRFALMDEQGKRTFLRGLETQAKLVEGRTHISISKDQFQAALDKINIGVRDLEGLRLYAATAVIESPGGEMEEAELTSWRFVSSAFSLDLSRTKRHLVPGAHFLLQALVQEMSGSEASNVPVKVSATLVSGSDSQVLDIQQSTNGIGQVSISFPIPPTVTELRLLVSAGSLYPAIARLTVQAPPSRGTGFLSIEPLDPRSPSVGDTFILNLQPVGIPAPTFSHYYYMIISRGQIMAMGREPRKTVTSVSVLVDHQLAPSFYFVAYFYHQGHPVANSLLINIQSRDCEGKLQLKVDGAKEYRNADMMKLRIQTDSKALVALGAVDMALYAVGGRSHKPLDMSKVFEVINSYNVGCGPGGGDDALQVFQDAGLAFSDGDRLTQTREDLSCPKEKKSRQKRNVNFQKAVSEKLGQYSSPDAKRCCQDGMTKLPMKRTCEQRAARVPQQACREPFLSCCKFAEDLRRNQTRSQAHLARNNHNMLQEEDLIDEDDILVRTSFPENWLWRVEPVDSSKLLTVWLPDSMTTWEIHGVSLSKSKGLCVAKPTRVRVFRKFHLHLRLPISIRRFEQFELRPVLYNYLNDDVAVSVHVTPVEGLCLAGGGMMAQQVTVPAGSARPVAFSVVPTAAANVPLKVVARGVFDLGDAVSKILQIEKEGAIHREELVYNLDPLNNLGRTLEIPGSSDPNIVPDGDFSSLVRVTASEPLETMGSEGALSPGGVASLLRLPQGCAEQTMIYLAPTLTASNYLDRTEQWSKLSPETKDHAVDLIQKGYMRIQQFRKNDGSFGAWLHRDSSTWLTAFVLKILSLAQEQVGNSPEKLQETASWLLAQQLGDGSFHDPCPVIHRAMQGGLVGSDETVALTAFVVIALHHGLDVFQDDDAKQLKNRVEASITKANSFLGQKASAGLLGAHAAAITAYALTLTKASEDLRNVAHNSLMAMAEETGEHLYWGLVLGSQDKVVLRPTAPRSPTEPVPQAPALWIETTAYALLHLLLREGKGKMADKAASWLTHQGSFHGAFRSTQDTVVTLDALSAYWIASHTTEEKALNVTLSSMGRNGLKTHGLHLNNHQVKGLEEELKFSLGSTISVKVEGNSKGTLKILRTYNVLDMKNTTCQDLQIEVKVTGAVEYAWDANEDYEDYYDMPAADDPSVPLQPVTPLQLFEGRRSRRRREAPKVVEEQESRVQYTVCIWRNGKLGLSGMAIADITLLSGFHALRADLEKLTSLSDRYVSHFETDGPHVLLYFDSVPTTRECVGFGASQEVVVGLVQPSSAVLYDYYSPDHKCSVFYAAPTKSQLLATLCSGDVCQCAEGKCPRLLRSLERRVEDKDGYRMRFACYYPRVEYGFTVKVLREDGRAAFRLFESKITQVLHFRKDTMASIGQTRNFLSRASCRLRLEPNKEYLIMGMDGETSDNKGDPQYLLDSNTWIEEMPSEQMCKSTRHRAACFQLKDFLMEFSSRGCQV

B1: TRIM21 (protein, UniProt Q62191 1-470)
chain: MSPSTTSKMSLEKMWEEVTCSICLDPMVEPMSIECGHCFCKECIFEVGKNGGSSCPECRQQFLLRNLRPNRHIANMVENLKQIAQNTKKSTQETHCMKHGEKLHLFCEEDGQALCWVCAQSGKHRDHTRVPIEEAAKVYQEKIHVVLEKLRKGKELAEKMEMDLTMQRTDWKRNIDTQKSRIHAEFALQNSLLAQEEQRQLQRLEKDQREYLRLLGKKEAELAEKNQALQELISELERRIRGSELELLQEVRIILERSGSWNLDTLDIDAPDLTSTCPVPGRKKMLRTCWVHITLDRNTANSWLIISKDRRQVRMGDTHQNVSDNKERFSNYPMVLGAQRFSSGKMYWEVDVTQKEAWDLGVCRDSVQRKGQFSLSPENGFWTIWLWQDSYEAGTSPQTTLHIQVPPCQIGIFVDYEAGVVSFYNITDHGSLIYTFSECVFAGPLRPFFNVGFNYSGGNAAPLKLCPLKM
B2: C1QC (protein, UniProt Q02105 30-246)
chain: SAGCYGIPGMPGMPGAPGKDGHDGLQGPKGEPGIPAVPGTRGPKGQKGEPGMPGHRGKNGPRGTSGLPGDPGPRGPPGEPGVEGRYKQKHQSVFTVTRQTTQYPEANALVRFNSVVTNPQGHYNPSTGKFTCEVPGLYYFVYYTSHTANLCVHLNLNLARVASFCDHMFNSKQVSSGGVLLRLQRGDEVWLSVNDYNGMVGIEGSNSVFSGFLLFPD
B3: C1QA (protein, UniProt P98086 23-245)
chain: EDVCRAPNGKDGAPGNPGRPGRPGLKGERGEPGAAGIRTGIRGFKGDPGESGPPGKPGNVGLPGPSGPLGDSGPQGLKGVKGNPGNIRDQPRPAFSAIRQNPMTLGNVVIFDKVLTNQESPYQNHTGRFICAVPGFYYFNFQVISKWDLCLFIKSSSGGQPRDSLSFSNTNNKGLFQVLAGGTVLQLRRGDEVWIEKDPAKGRIYQGTEADSIFSGFLIFPSA
B4: Cactin (CACTIN) (protein, UniProt Q9CS00 1-772)
chain: MRGAGRQMGRDSRSRSRSVGRRGRKQRSRSRGRSRSRSRSRSRSRSRSRSRSRSHGRSSRRRREHERRRERKRRSRGRRSDSEGEQRQKSRRRSQSLRPPRWHSQNQSSCSDSGEERAQGSWARKGHRRSWSPGSSASSLDSPRRSRSPGTATLALSQQQSLQERLRLREERKQQEELLKAFETPEEKRARRLAKKEAKERKKREKMGWGEEYMGYTNTDNPFGDNNLLGTFIWNKALEKKGISHLEEKELKERNKRIQEDNRLELQKVKQLRLEREREKAMREQELELLQREKEAEHFKTWEEQEDSFHLRQAKLRSKIRIRDGRAKPIDLLAKYISAEDDDLAVEMHEPYTFLNGLTVADMEDLLEDIQVYMELEQGKNVDFWRDMTTITEDEIAKLRKLEASGKGPGERREGVNASVSSDVQSVFKGKTYNQLQVIFQGIEGKIRAGGPNLDMGYWESLLQQLRAHMARARLRERHQDVLRQKLFKLKQEQGVESEPLFPILKSEPSAAHSPEPEERPPSPGTSVDPVEPVEPEEATAPGEAEGEAEGEAVLMEEDLIQQSLADYDAGRYSPRLLTAHELPLDAHVLEPHEDLQRLQLSRQQLQATGDASESAEDIFFRRAREGMGQDEAQFSVEMPLGGRAYLWADKYRPRKPRFFNRVHTGFEWNKYNQTHYDFDNPPPKIVQGYKFNIFYPDLIRKRATPEYFLEACADNRDFAILRFHAGPPYEDIAFKIVSREWEYSHRHGFRCQFANGIFQLWFHFKRYRYRR

Assays:
[1] = molecular target: OTULIN (mouse (endogenous in hippocampal tissue)) (UniProt Q3UCV8); assay: affinity purification with mass spectrometry; nTg littermate control mice, 8 months, hippocampal lysate (IP lysis buffer, 0.5% NP-40, 150 mM NaCl); OTULIN antibody on Dynabeads protein A, 4 °C overnight, IgG as control, three replicates; LC-MS/MS, limma and SAINTexpress scoring
[2] = molecular target: OTULIN (mouse (endogenous in hippocampal tissue)) (UniProt Q3UCV8); assay: affinity purification with mass spectrometry; PS19 Tg mice, 8 months, hippocampal lysate (IP lysis buffer, 0.5% NP-40, 150 mM NaCl); OTULIN antibody on Dynabeads protein A, 4 °C overnight, IgG as control, three replicates; LC-MS/MS, limma and SAINTexpress scoring
[3] = molecular target: OTULIN (mouse (endogenous in hippocampal tissue)) (UniProt Q3UCV8); assay: affinity purification with mass spectrometry; nTg littermate control mice, 8 months, hippocampal lysate (IP lysis buffer, 0.5% NP-40, 150 mM NaCl); OTULIN antibody on Dynabeads protein A, 4 °C overnight, IgG as control, three replicates; LC-MS/MS, limma and SAINTexpress scoring; remark: listed apart in the source

Molecule | binding [1] | binding [2] | binding [3]
C1QB (from UniProt P14106 26-253) | binds | binds | –
C3 (from UniProt P01027 25-1663) | binds | binds | –
C4B (from UniProt P01029 20-1738) | binds | binds | –
MYCBP2 (from UniProt Q7TPH6 1-4749) | binds | binds | –
B1 | – | binds | binds
B2 | – | binds | binds
B3 | – | binds | binds
B4 | – | binds | –
